In patent US9610263B2, “Method of modulating membrane potential of a cell” (VERSITECH LIMITED, priority 2007, dated 2017):
“Also recorded” adds a separate entry of the source. At least one compound was matched to its structure with a doubt left.

Columns and labels:
[1] = test system: human embryonic kidney (HEK 293) cells; assay: Whole-cell patch-clamp recording of chloride currents; type: cell-based
[2] = Liposome membrane potential assay with safranin O (Na2SO4 inside, NaCl outside); type: biochemical; settings: EYPC liposomes containing Na2SO4 in isotonic NaCl
[3] = Single-channel patch-clamp recording on giant liposomes; type: biochemical
[4] = test system: Madin-Darby canine kidney (MDCK) cells; assay: Membrane potential of living cells with bis-oxonol (DiBAC4(3)); type: cell-based
Source text: To determine the potential of Example 2 for application in biological and medicinal science, Example 2 was investigated for incorporating into the plasma membranes of living cells and, thereby, modulating their membrane potentials by increasing chloride permeability of the cell membranes. A potential-sensitive dye his-oxonal was used to measure the relative changes in membrane potential of the Madin-Darby canine kidney (MDCK) cells, a model for the renal distal tubule and collecting duct that secrete chloride ions. An increase in fluorescence of bis-oxonal indicated cell depolarization while a decrease indicated hyperpolarization. […] This depolarization effect could be ascribed to that the chloride equilibrium potential (ECl) was higher than the resting membrane potential in MDCK cells. Thus, the opening of chloride channels shifted the membrane potential towards the ECl.
In summary, FIG. 14A-E show the effects of adding different substances, including Example 2, on the membrane potential of Madin-Darby canine kidney (MDCK) cells. Membrane potentials of MDCK cells were monitored by the changes of emission intensity of the potential-sensitive dye bis-oxonol (DiBAC4(3)). The increase in the fluorescence intensity indicates depolarization. […] Each point in FIG. 14A-E represents the mean±s.e. (n=20-80 cells in 4-6 experiments).

[5] = test system: rat thoracic aortic smooth muscle cell line A7r5; assay: Intracellular Ca2+ concentration of vascular smooth muscle cells; type: cell-based
mouse aortic rings = assay: Vasorelaxation of aortic rings constricted by phenylephrine (PE); settings: constricted by α-adrenergic agonist phenylephrine (10 μM PE); n=4
[6] = Membrane potential of valinomycin-polarized liposomes (safranin O); type: biochemical; settings: KCl-loaded EYPC-liposomes polarized with valinomycin, then compound
Source text: The ability of Example 2 to modulate membrane potentials in polarized liposomes was investigated. […] This depolarization process induced by Example 2 may be attributed to the formation of chloride channels by Example 2 that mediate chloride ions flow out of the polarized liposomes to balance the electrostatic potential established by valinomycin.

[7] = pH-stat fluorometric transport assay in HPTS-loaded liposomes (chloride release); type: biochemical
[8] = test system: rat thoracic aortic smooth muscle cell line A7r5; assay: Membrane potential of vascular smooth muscle cells; type: cell-based
[9] = test system: mouse thoracic aortic rings; assay: Vasorelaxation of aortic rings preconstricted by high-K solution (organ bath); settings: concentrations increased from 1 to 30 uM
Source text: Example 52 was for investigating whether Example 2 could promote vasorelaxation during vasoconstriction induced by depolarization. Mouse thoracic aortic rings was mounted in an organ bath apparatus and measured their muscular activity.

[10] = A7r5 cells pretreated with compound, then 60 mM K+
[11] = A7r5 cells, prior application of compound alone (10 μM)

**Q.** Which “whole cell chloride currents” value ([1]; 50 nM in bath solution) does the source give for `CC(C)CNC(=O)[C@@H](CC(C)C)ONC(=O)c1cccc(C(=O)NO[C@H](CC(C)C)C(=O)NCC(C)C)c1` [Example 2] here?
**A.** dramatically increases cell chloride currents; also recorded: large increase in whole cell currents

**Q.** What about the “induced whole cell currents in presence of anion transport inhibitor DIDS” value ([1]; DIDS present) of the same molecule?
**A.** not reduced

**Q.** What about the “fluorescence intensity of safranin O (membrane potential of liposomes)” value [2] of the same molecule?
**A.** rapid increase in fluorescence intensity of safranin O

**Q.** And the “change in conductance or reversal potential” value ([3]; NMDG-Cl in the bath solution replaced by KCl)?
**A.** no measurable change either in conductance or in reversal potential

**Q.** What about the “channel open probability (P0) and frequency” value ([3]; increasing voltages of lipid bilayers, physiologically relevant range) of the same molecule?
**A.** enhanced steeply upon increasing voltages

**Q.** What about the “ion selectivity and gating of the channels formed” value ([3]; patch clamp, giant liposomes) of the same molecule?
**A.** anion selective and voltage-gated

**Q.** What about the single-channel primary conductance ([3]; symmetric 0.2 M N-methyl-glucamine hydrochloride (NMG-Cl) solutions) of the same molecule?
**A.** 54 pS

**Q.** And the “membrane potential (bis-oxonol fluorescence)” value ([4]; MDCK cells perfused with low chloride (100 mM chloride) solution plus 10 μM compound)?
**A.** obviously facilitated this depolarization process; also recorded: slight depolarization

**Q.** And the “membrane potential (bis-oxonol fluorescence)” value ([4]; MDCK cells, 10 μM added after 1 mM DPC)?
**A.** shift of the hyperpolarized membrane potential toward the original resting potential

**Q.** And the “membrane potential (bis-oxonol fluorescence)” value ([4]; MDCK cells, 10 μM added alone)?
**A.** depolarization of the membrane potential of MDCK cells

**Q.** And the “membrane potential (bis-oxonol fluorescence)” value ([4]; MDCK cells, 60 mM Cl- Ringer's solution with 1 mM DPC, then 10 μM compound)?
**A.** depolarized the cells by restoring chloride permeability of the cell membranes; also recorded: depolarization of such membrane potential

**Q.** What about the “intracellular Ca2+ concentration [Ca2+]i” value ([5]; A7r5 cells in 60 mM K+ solution, then 10 uM compound) of the same molecule?
**A.** slow decrease in the [Ca^2+]i to almost the original level

**Q.** What about the “high-K induced effect on the [Ca2+]” value [5, 10] of the same molecule?
**A.** remarkably inhibited

**Q.** And the “intracellular Ca2+ concentration [Ca2+]i” value [5, 11]?
**A.** no obvious effect; also recorded: nor change in the [Ca^2+]

**Q.** What about the “relaxation of aortic rings” value (mouse aortic rings) of the same molecule?
**A.** failed to relax these aortic rings

**Q.** What about the “membrane potential of polarized liposomes” value [6] of the same molecule?
**A.** rapidly depolarized the EYPC-liposomes

**Q.** And the “chloride release / exchange between extra- and intravesicular electrolytes” value ([7]; LUVs of 100 nm, NaCl extra- and intravesicular buffers)?
**A.** rapid, concentration-dependent exchange between extra- and intravesicular electrolytes

**Q.** And the transport activity ([7]; LUVs symmetrically loaded with Na2SO4)?
**A.** no transport activity was detected

**Q.** And the “anion selectivity of electrolyte exchange” value ([7]; chloride versus sulfate)?
**A.** high anion selectivity

**Q.** What about the membrane potential ([8]; A7r5 cells depolarized by 60 mM K+ solution, then 10 uM compound) of the same molecule?
**A.** repolarization of the membrane potential

**Q.** What about the “high-K induced effect on the membrane potential” value [8, 10] of the same molecule?
**A.** remarkably inhibited; also recorded: much weaker depolarization effect

**Q.** What about the membrane potential [8, 11] of the same molecule?
**A.** no obvious depolarization effect

**Q.** What about the “relaxation of preconstricted aortic rings” value [9] of the same molecule?
**A.** complete relaxation
